# Test results published in the supplement of paper PMC12067093, “Discovery and optimisation of a covalent ligand for TRIM25 and its application to targeted protein ubiquitination” (Chemical Science, 2025).
# The chains behind the UniProt entries cited, without tags or fusion partners. Where a name states a change or a piece, a line headed by the entry shows the natural chain unless it says otherwise.
# UniProt Q86U38: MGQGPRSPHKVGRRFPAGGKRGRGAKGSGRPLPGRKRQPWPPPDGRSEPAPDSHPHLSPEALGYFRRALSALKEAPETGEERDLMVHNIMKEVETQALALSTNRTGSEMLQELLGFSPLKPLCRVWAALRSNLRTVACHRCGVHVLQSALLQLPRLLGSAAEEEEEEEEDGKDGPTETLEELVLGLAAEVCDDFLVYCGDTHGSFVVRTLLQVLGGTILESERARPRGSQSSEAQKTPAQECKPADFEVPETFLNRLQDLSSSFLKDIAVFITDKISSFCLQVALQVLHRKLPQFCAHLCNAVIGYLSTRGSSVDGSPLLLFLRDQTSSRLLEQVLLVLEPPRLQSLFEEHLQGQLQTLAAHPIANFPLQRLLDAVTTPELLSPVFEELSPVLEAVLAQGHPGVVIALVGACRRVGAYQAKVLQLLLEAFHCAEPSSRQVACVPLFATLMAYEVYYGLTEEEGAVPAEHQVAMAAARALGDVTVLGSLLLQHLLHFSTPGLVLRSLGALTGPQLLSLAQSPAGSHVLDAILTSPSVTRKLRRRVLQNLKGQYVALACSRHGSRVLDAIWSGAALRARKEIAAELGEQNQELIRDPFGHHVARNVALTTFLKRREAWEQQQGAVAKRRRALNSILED
# UniProt Q96MF7: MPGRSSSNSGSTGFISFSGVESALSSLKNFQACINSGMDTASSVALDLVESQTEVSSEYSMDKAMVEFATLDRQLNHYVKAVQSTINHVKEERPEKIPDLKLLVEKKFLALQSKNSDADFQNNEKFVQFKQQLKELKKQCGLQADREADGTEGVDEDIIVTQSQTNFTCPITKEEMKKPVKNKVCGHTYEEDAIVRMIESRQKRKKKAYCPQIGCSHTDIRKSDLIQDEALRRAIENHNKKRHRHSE
# UniProt Q9BYT8, whole entry, looked up: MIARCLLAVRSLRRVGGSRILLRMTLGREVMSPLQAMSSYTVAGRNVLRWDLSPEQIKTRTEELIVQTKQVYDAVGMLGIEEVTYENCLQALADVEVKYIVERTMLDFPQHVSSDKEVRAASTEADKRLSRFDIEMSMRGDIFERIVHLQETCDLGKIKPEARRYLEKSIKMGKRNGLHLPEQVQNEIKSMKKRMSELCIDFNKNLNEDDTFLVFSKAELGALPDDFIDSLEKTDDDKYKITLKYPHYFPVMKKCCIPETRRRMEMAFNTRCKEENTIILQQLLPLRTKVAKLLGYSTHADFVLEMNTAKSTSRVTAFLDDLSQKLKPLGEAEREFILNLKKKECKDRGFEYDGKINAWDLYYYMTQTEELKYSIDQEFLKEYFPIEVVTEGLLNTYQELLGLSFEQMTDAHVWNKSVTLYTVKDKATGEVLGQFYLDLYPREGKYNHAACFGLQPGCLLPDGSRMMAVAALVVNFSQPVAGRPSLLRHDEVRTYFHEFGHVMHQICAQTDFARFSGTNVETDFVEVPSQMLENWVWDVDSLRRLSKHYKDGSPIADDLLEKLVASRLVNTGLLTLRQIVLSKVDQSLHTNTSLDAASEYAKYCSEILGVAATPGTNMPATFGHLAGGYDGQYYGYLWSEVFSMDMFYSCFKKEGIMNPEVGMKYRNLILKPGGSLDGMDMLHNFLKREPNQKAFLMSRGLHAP
# UniProt Q96MY1: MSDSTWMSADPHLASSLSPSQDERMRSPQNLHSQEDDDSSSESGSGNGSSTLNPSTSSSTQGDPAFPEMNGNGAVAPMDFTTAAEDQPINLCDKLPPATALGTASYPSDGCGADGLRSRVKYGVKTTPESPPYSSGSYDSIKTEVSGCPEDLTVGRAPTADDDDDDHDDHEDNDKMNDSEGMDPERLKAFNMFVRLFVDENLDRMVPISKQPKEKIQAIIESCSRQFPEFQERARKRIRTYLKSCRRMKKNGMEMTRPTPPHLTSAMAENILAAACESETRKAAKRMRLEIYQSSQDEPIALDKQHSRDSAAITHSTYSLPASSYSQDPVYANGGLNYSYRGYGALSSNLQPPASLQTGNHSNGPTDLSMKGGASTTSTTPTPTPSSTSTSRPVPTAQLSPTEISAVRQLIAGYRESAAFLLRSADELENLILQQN
# UniProt Q5SY16: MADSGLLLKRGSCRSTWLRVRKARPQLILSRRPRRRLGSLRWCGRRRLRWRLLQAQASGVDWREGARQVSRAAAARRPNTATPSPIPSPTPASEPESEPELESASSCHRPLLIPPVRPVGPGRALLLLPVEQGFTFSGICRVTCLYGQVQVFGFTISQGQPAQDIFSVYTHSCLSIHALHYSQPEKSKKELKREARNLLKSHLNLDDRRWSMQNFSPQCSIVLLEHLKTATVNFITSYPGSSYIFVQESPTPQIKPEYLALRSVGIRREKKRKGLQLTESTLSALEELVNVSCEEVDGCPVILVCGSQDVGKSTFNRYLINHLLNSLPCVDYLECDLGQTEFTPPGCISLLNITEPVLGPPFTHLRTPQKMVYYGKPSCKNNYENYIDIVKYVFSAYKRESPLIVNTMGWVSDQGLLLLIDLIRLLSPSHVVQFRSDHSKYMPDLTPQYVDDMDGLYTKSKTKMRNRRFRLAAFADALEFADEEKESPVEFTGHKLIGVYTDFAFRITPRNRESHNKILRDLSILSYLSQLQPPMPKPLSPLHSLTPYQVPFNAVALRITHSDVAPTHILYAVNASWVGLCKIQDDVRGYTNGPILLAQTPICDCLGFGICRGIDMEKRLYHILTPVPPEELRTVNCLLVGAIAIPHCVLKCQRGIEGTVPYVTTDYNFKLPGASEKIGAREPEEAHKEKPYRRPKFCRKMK
# UniProt Q8NDH3: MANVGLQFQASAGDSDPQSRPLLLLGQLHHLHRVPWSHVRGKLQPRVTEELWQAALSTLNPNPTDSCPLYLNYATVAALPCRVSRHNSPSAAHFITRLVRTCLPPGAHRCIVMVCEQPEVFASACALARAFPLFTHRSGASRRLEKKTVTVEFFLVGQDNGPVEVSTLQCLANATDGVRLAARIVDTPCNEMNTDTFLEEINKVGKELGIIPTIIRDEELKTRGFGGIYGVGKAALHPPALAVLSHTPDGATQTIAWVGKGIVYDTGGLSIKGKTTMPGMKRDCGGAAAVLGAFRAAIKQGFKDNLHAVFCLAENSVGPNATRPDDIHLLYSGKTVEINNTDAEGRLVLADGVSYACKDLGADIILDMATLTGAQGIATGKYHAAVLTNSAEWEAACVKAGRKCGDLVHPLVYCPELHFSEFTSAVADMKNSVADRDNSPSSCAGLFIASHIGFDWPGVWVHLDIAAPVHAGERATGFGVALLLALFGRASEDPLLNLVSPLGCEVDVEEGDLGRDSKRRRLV
# UniProt O96028: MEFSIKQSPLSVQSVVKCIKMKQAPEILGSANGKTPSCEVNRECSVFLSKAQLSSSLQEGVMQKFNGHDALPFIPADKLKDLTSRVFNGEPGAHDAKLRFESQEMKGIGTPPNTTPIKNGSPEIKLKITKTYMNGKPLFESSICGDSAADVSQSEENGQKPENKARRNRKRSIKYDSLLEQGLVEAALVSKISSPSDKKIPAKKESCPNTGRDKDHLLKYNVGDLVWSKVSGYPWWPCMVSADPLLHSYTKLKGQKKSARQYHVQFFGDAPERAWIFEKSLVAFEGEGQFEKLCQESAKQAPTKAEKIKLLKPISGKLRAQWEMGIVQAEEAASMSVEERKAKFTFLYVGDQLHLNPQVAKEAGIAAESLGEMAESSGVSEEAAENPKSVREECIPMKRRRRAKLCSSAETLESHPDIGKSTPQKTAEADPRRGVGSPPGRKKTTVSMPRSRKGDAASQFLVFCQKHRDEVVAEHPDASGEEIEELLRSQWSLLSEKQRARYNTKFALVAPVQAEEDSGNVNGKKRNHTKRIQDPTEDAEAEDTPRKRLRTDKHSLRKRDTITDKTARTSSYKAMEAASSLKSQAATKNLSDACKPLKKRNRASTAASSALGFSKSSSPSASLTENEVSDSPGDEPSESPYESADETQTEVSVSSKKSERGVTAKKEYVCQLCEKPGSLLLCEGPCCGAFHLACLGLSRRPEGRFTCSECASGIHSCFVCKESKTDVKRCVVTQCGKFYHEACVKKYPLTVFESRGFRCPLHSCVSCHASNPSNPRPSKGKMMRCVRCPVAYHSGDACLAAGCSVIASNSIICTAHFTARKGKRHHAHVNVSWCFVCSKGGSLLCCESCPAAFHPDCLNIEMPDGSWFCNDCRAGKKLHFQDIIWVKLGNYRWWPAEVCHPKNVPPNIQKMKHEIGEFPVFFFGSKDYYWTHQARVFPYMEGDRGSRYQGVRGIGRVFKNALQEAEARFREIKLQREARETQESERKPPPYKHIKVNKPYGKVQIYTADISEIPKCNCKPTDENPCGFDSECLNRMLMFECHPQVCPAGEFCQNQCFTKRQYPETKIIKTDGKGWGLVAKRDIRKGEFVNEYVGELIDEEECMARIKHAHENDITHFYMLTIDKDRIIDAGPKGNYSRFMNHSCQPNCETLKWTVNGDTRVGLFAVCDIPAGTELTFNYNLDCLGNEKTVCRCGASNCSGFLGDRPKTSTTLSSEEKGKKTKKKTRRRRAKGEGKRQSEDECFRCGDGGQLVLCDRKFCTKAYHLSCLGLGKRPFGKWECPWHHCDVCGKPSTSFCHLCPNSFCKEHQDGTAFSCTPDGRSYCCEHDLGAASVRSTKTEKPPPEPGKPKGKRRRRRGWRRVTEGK
# UniProt Q86WQ0: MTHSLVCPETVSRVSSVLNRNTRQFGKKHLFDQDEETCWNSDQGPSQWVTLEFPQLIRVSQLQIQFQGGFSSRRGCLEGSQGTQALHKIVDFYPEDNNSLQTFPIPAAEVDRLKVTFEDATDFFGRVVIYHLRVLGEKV
# UniProt Q08J23, whole entry, looked up: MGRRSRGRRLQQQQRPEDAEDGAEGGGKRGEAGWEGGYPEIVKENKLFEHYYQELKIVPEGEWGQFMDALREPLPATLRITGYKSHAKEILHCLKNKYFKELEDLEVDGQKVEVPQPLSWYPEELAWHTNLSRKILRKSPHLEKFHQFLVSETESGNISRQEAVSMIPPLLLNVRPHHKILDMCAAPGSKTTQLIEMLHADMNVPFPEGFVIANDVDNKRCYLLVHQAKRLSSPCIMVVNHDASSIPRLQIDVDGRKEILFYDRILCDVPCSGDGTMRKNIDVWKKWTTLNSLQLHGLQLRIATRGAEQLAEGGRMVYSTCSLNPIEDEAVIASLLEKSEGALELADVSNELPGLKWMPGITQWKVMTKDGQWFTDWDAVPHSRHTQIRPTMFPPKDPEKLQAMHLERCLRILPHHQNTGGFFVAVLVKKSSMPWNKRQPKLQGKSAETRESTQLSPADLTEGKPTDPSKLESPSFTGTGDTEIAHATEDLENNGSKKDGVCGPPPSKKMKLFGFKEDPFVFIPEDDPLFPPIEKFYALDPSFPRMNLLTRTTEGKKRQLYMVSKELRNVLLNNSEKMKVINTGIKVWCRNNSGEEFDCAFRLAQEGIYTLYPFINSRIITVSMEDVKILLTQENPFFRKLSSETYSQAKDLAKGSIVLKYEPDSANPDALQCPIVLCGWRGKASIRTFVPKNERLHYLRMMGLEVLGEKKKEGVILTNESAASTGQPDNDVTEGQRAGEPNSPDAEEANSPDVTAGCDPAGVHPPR
# UniProt P10588: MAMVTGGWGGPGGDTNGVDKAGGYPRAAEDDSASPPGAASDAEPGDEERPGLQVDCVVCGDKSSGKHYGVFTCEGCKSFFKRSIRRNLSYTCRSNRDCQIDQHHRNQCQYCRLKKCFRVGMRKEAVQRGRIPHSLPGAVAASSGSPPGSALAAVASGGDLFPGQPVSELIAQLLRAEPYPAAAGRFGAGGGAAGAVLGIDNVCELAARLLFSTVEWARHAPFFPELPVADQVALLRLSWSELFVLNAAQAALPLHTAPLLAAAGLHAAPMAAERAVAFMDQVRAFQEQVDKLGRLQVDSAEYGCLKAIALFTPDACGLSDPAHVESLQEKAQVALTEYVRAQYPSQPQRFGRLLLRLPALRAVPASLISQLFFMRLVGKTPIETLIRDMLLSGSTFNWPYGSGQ
# UniProt Q96CB9: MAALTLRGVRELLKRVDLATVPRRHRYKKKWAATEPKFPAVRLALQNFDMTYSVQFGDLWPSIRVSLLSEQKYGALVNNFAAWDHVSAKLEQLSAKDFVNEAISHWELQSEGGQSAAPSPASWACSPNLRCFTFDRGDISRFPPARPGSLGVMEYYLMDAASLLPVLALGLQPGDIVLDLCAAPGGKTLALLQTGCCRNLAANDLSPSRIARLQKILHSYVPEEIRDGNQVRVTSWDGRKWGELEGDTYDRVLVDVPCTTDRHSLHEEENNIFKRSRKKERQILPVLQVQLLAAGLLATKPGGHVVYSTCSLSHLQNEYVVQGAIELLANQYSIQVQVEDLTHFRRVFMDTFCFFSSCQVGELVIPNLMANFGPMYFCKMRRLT
# The other results are listed elsewhere or left out.
# Compound: Cc1cc(ccc1-c1ccccc1)C(=O)N1CCCN(CC1)C(=O)CCl [compound 10]
# Assay: probe-labelled cysteine peptide fold change vs DMSO (competition) (log2 fold change); higher = less target engagement (more negative = stronger competition)
# Conditions: 10 µM; THP-1; incubation time: 4 h
# 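Also: competitive profiling in live THP-1 cells: cysteine peptides tagged with an iodoacetamide desthiobiotin (IA-DTB) probe, intensity after compound treatment relative to DMSO-treated cells.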
row,Target,probe-labelled cysteine peptide fold change
1,NMT2_O60551_485_CPGTDSEK (UniProt O60551),-0.0655
2,NOL11_Q9H8H0_557_CNNCDQELNK (UniProt Q9H8H0),0.0774
3,NOP9_Q86U38_141_CGVHVLQSALLQLPR (UniProt Q86U38),0.271
4,NLRP2_Q9NX02_692_SQDDQHMLPFWTDLCSIFGSNK (UniProt Q9NX02),-0.0707
5,NPEPPS_P55786_66_LPADVSPINYSLCLKPDLLDFTFEGK (UniProt P55786),0.147
6,NSMCE2_Q96MF7_215_AYCPQIGCSHTDIR (UniProt Q96MF7),0.456
7,NLN_Q9BYT8_458_YNHAACFGLQPGCLLPDGSR (UniProt Q9BYT8),-0.101
8,NOL4L_Q96MY1_148_TEVSGCPEDLTVGR (UniProt Q96MY1),-0.305
9,NOP9_Q86U38_242_TPAQECKPADFEVPETFLNR (UniProt Q86U38),-0.1
10,NOL9_Q5SY16_637_TVNCLLVGAIAIPHCVLK (UniProt Q5SY16),-0.0765
11,NOP14_P78316_457_CNHPSLAEGNK (UniProt P78316),-0.017
12,NR3C1_P04150_463_NDCIIDK (UniProt P04150),-0.0776
13,NPEPL1_Q8NDH3_404+414_CGDLVHPLVYCPELHFSEFTSAVADMK (UniProt Q8NDH3),-0.13
14,NOL8_Q76FK4_1020_EEGTPWNEDCGK (UniProt Q76FK4),-0.0193
15,NPEPL1_Q8NDH3_284_DCGGAAAVLGAFR (UniProt Q8NDH3),-0.000299
16,NOCT_Q9UK39_165_DNFVQCPVEALKWEER (UniProt Q9UK39),-0.16
17,NSD2_O96028_1198_CGASNCSGFLGDRPK (UniProt O96028),-0.0597
18,NMD3_Q96D46_250_STFSVEIVPICK (UniProt Q96D46),0.105
19,NR2C2AP_Q86WQ0_7_THSLVCPETVSR (UniProt Q86WQ0),-0.0852

row,Target,probe-labelled cysteine peptide fold change
1,NRDC_O43847_1027_LKECEDTHLGEEVDR (UniProt O43847),-0.162
2,NSUN2_Q08J23_93_EILHCLK (UniProt Q08J23),0.0908
3,NR2F6_P10588_316_AIALFTPDACGLSDPAHVESLQEK (UniProt P10588),-0.711
4,NSMCE2_Q96MF7_210+215_AYCPQIGCSHTDIR (UniProt Q96MF7),0.617
5,NOC4L_Q9BVI4_100_HRYHSCCNR (UniProt Q9BVI4),-0.259
6,NOP56_O00567_52_LVAFCPFASSQVALENANAVSEGVVHEDLR (UniProt O00567),0.094
7,NONO_Q15233_208_CSEGSFLLTTFPRPVTVEPMDQLDDEEGLPEK (UniProt Q15233),-0.0258
8,NOMO2_Q5JPE7_411_IAPNTPQLADIVATGFSVCGR (UniProt Q5JPE7),0.151
9,NSDHL_Q15738_40_CTVIGGSGFLGQHMVEQLLAR (UniProt Q15738),-0.0629
10,NSUN2_Q08J23_599_NNSGEEFDCAFR (UniProt Q08J23),-0.0151
11,NLRX1_Q86UT6_713_CTVVAAVLGSGR (UniProt Q86UT6),-0.0553
12,NOL9_Q5SY16_581_ITHSDVAPTHILYAVNASWVGLCK (UniProt Q5SY16),0.0465
13,NOTCH1_P46531_1293_VNDFHCECR (UniProt P46531),-0.159
14,NPAT_Q14207_1172_ENELCSDVER (UniProt Q14207),-0.122
15,NTMT1_Q9BV86_195_IICSAGLSLLAEERQENLPDEIYHVYSFALR (UniProt Q9BV86),0.128
16,NSUN4_Q96CB9_258_VLVDVPCTTDR (UniProt Q96CB9),-0.104
17,NOL10_Q9BSC4_55_IELIQDFEMPTVCTTIK (UniProt Q9BSC4),0.00277
18,NOB1_Q9ULX3_285+288_VFCSHCGNK (UniProt Q9ULX3),0.265
19,NSD2_O96028_1323+1324_SYCCEHDLGAASVR (UniProt O96028),-0.0346

# Copied from above (2 entries):
row,Target,probe-labelled cysteine peptide fold change
15,NTMT1_Q9BV86_195_IICSAGLSLLAEERQENLPDEIYHVYSFALR (UniProt Q9BV86),0.128
16,NSUN4_Q96CB9_258_VLVDVPCTTDR (UniProt Q96CB9),-0.104
